From paper PMC5466756
No constants are given. Whether binding was seen depends on the method and setting. Binding seen in cells or lysates may run through a third protein. Some results given as binding are weak or reduced against the parent protein; the word gives no strength.

Chains of the proteins cited; added tags and fusions are not shown. Residues count along the entry.
UniProt P28799, residues 18-593: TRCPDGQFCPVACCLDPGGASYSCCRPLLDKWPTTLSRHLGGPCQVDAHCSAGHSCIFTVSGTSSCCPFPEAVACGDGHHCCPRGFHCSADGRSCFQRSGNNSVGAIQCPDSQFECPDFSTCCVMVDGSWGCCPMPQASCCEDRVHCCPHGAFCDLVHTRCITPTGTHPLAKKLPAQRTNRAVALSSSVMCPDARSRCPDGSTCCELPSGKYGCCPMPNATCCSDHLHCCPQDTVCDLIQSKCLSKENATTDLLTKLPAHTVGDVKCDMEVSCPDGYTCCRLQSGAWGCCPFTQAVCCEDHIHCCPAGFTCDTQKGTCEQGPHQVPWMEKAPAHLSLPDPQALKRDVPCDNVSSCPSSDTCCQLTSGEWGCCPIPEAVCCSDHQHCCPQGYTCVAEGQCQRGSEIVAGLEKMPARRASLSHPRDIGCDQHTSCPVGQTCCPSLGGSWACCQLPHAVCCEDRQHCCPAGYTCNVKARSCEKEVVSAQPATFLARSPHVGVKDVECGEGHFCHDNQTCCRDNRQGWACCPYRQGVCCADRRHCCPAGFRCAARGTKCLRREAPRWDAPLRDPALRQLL
UniProt P11021, residues 19-654: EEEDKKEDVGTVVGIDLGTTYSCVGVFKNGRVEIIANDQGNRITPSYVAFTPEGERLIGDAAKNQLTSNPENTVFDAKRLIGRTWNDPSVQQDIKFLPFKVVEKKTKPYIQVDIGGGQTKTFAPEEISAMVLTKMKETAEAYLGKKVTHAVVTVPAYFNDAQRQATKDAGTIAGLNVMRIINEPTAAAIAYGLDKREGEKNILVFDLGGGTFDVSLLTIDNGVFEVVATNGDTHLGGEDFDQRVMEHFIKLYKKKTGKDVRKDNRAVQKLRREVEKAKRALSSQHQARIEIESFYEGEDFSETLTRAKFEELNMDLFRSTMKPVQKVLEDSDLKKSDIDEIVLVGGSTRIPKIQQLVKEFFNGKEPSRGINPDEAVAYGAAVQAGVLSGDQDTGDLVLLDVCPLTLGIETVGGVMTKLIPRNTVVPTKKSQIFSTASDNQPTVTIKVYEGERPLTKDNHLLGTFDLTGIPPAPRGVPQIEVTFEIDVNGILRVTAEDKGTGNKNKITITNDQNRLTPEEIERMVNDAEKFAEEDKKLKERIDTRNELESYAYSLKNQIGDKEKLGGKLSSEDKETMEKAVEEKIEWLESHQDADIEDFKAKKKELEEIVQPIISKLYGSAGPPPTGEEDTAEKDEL

Tests used:
[1] = target: Granulin-epithelin precursor (human) (UniProt P28799); test: co-IP; lysate of the membrane fraction of HepG2-FL incubated with anti-GEP antibody A23 or anti-GRP78 antibody overnight at 4 °C, protein G-Sepharose, immunoblot for GEP and GRP78; controls antibody alone and lysate alone
[2] = target: 78-kDa glucose-regulated protein (human (endogenous in Hep3B and HepG2)) (UniProt P11021); test: as above

binding [1]	binding [2]	Substance
binds		78-kDa glucose-regulated protein (from UniProt P11021 19-654)
	binds	Granulin-epithelin precursor (from UniProt P28799 18-593)
